This is an account of results in PubChem BioAssay AID2685 (National Center for Advancing Translational Sciences (NCATS), 2010).

The nature of the test: qHTS Assay for Lipid Storage Modulators in Drosophila S3 Cells.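 As to cell number change: cells counted by Cell Tracker Red CMTPX staining in the red channel.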 The note with it: BODIPY lipid droplet fluorescence, 18-24 h; for cell number change: measured here: cell count max response, cells fed with added oleic acid. The essentials: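 Drosophila S3 cells loaded with oleic acid (400 uM, as added) and compounds at several concentrations; lipid droplets imaged by 488-nm laser-scanning cytometry, 500–530 nm intensity and object ratio to cell channel. Percent activity normalized to 20 uM Triacsin C.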
(In general: qHTS replaces the single test concentration by a dilution series.)

Setting [1] is: measured here: cell number channel AC50, cells fed with added oleic acid.
[2] abbreviates: measured here: lipid fluorescence (Fed channel) AC50, cells fed with added oleic acid.

Molecules are shown by their SMILES. This is one part of the list. Further columns of the screen follow, without active or inactive calls. The list favours compounds with an active or inconclusive main result. Potencies come from curve fits of mixed quality, noted in brackets.

For the compound `COCCCNS(=O)(=O)c1ccc2c(c1)OCCO2`, the cell number change was determined as 30%. Further, under setting [1], the AC50 was 0.206 µM [rising, full curve, poor fit]. Further, under setting [2], the AC50 was 0.259 µM [falling, full curve].

Turning to `CC(C)(C)[C@]1(O)CCN2C[C@H]3c4ccccc4CCc4cccc(c43)[C@@H]2C1`, the cell number change is -58.7%. Further, under setting [1], the AC50 was 14.6 µM [falling, partial curve]. Besides, the AC50 under setting [2] is 14.6 µM [falling, partial curve].

Regarding `CCOC(=O)c1cnc(-n2nc(C)cc2C)nc1Nc1ccccc1OC`, the cell number change is 15.2%.

Take `CCN(C(=O)COc1cc(=O)n(C)c2ccccc12)c1cccc(Cl)c1`: the cell number change amounted to 2.01%. Further, the concentration at half-maximal activity (AC50) under setting [2] was 0.13 µM [rising, full curve, poor fit].

As for `CCn1cnc2c([N+](=O)[O-])c(NS(=O)(=O)c3ccc(C)cc3)ccc21`, the cell number change was -43.4%. In addition, the AC50 under setting [1] is 29.1 µM [falling, single point]. For the same compound, the AC50 under setting [2] was 2.59 µM [falling, full curve].

Regarding `CC1(c2ccc(OC(F)F)cc2)NC(=O)N(CC(=O)Nc2ccc3c(c2)OCO3)C1=O` (stereo unspecified), the cell number change was 118%. Also, the half-maximal activity concentration (AC50) under setting [1] is 0.13 µM [rising, full curve, poor fit].

`COc1ccc(S(=O)(=O)NN(C)c2nc(C(F)(F)F)nc3ccccc23)cc1`: the cell number change turned out to be 1.76%.

On to `CCOc1ccccc1O[C@H](c1ccccc1)[C@H]1CNCCO1`, for which the cell number change amounted to 51.6%. Also, the AC50 under setting [1] was 1.64 µM [rising, partial curve]. Also, the half-maximal activity concentration (AC50) under setting [2] was 2.59 µM [rising, partial curve].

On to `CC(=O)N1CCN(C(=O)COC(=O)CNC(=O)c2ccc(C)cc2)CC1`, for which the cell number change is 2.45%. Further, the AC50 under setting [1] is 4.61 µM [falling, single point].

Turning to `Cc1cccc(NC(=O)CCC(=O)c2cccs2)n1`, the AC50 under setting [1] was 3.66 µM [rising, single point].

Take `C=CCc1ccccc1OCC(O)CN1CCN(c2ccccc2F)CC1` (stereo unspecified): the cell number change was -53.4%. In addition, the half-maximal activity concentration (AC50) under setting [1] is 32.6 µM [falling, single point]. Under setting [2], the half-maximal activity concentration (AC50) is 29.1 µM [falling, single point].

Turning to `O=C(Cc1ccccc1)NCC(=O)N/N=C/c1ccc([N+](=O)[O-])s1`, under setting [2], the AC50 was 29.1 µM [falling, single point].

Regarding `Clc1cc(Br)ccc1OCCn1ccnc1`, the cell number change amounted to 80.4%. For the same compound, the AC50 under setting [1] was 13 µM [rising, partial curve].

For the compound `O=c1[nH]c2ccc(Cl)cc2c(O)c1-c1ccccc1`, the cell number change was 4.17%. Also, the AC50 under setting [2] is 29.1 µM [rising, single point].

`O=C(Nc1ccccc1)N(Cc1ccccc1)C1=NCCS1`: the cell number change is -20%. Further, the AC50 under setting [2] was 4.11 µM [falling, full curve].

For the compound `Cc1cc(=O)[nH]c(-n2nc(C)c(Oc3ccccc3O)c2C)n1`, the cell number change came to 0.571%.

Turning to `COc1ccccc1OC(C)C(=O)Nc1nc(-c2ccc(S(=O)(=O)N3CCOCC3)cc2)cs1` (stereo unspecified), the cell number change was -21.7%. Besides, under setting [2], the AC50 is 29.1 µM [falling, single point].

`COc1ccc(CNC(=O)c2cc(S(=O)(=O)N3CCOCC3)cn2C)cc1`: the cell number change was 20.5%. In addition, the AC50 under setting [2] is 3.66 µM [rising, full curve].

As to `CC(OC(=O)Cn1cc(C(F)(F)F)ccc1=O)C(=O)NC(C)c1ccc(Cl)cc1Cl` (stereo unspecified), the cell number change was determined as 31.8%. Besides, the AC50 under setting [1] was 14.6 µM [rising, single point]. For the same compound, under setting [2], the concentration at half-maximal activity (AC50) is 25.9 µM [rising, single point].

`O=C(CSc1ccc(-c2cccs2)nn1)NCc1ccccc1Cl`: the cell number change is -10.2%. Under setting [2], the AC50 is 0.58 µM [falling, full curve, poor fit].

For the compound `CCc1ccccc1NC(=O)CSc1nnc([C@@H](NC(=O)OC(C)(C)C)C(C)CC)o1` (stereo partly specified), the cell number change was -1.5%. Moreover, under setting [2], the AC50 was 3.66 µM [falling, partial curve].

Take `COc1ccc(F)cc1C(=O)C1CCCN(C(=O)CSc2ccccn2)C1` (stereo unspecified): the cell number change was -14.5%. Also, the AC50 under setting [2] was 16.4 µM [falling, single point].

As to `Brc1ccc(-c2cnc(-c3cccs3)o2)cc1`, the cell number change was -34.2%. Besides, under setting [1], the concentration at half-maximal activity (AC50) was 32.6 µM [falling, single point].

Take `Cc1nc2cc(-c3cccc(F)c3)nn2c(C)c1CCC(=O)NC(C)CCc1ccco1` (stereo unspecified): the cell number change was -26.7%. For the same compound, under setting [2], the AC50 is 29.1 µM [falling, single point].

Consider `O=c1[nH][nH]c(-c2ccccc2O)c1C(C[N+](=O)[O-])c1ccccc1` (stereo unspecified), for which the cell number change came to 65%. Besides, the AC50 under setting [1] is 18.4 µM [rising, single point].

On to `O=C(COc1ccccc1F)Nc1nnc(C2CCCC2)s1`, for which the cell number change was found to be 7.08%. In addition, the AC50 under setting [2] is 6.51 µM [rising, single point].

On to `CCNC(=O)CC1C(=O)N(c2ccc(F)cc2)C(=O)N1Cc1ccccn1` (stereo unspecified), for which the cell number change turned out to be 22.9%. Also, under setting [2], the AC50 is 18.4 µM [rising, single point].

Turning to `Cc1ccc(S(=O)(=O)N(CC(=O)c2ccc(Cl)cc2)C(=O)N2CCN(C)CC2)cc1`, the cell number change came to 8.01%. The AC50 under setting [2] was 29.1 µM [falling, single point].

For the compound `Cc1cccc(N2CCN(C(=O)c3cccc(N4C(=O)C5C6C=CC(C6)C5C4=O)c3)CC2)c1C` (stereo unspecified), the cell number change amounted to 37.9%. In addition, the AC50 under setting [1] was 25.9 µM [rising, single point]. Further, the AC50 under setting [2] was 0.731 µM [rising, single point].

As to `Cc1ccc(S(=O)(=O)Nc2ccccc2F)cc1C(=O)NCCCN1CCCC1=O`, the cell number change stood at 5.07%.

As for `Cc1nc2c(c(=O)n1CCC1=CCCCC1)c1nc3ccccc3nc1n2/N=C/c1ccco1`, the half-maximal activity concentration (AC50) is 1.46 µM [rising, single point] under setting [1] and 6.51 µM [rising, partial curve] under setting [2].

Take `Cc1ccc(OCC(=O)Nc2cccc(S(=O)(=O)N3CCCCCC3)c2)c([N+](=O)[O-])n1`: the cell number change is -3.25%. The AC50 under setting [2] was 6.51 µM [falling, single point].

For `CCCCCCCCCn1ccc(=N)cc1`, the cell number change was -64.2%. The AC50 under setting [1] is 1.64 µM [falling, full curve]. Further, under setting [2], the half-maximal activity concentration (AC50) was 5.8 µM [falling, full curve].

As for `Cc1ccc(NCC(=O)Nc2cccc(F)c2)cc1S(=O)(=O)N1CCCCCC1`, the cell number change came to 0.872%.

Consider `O=C(CNC(=O)c1cccs1)NC1=NCCS1`, for which the cell number change was -5.39%. The half-maximal activity concentration (AC50) under setting [2] is 29.1 µM [falling, single point].

Turning to `O=C1N(CCCCN2C(=O)C3(OCCO3)c3ccccc32)c2ccccc2C12OCCO2`, the cell number change turned out to be 150%. The half-maximal activity concentration (AC50) under setting [1] is 18.4 µM [rising, partial curve]. The half-maximal activity concentration (AC50) under setting [2] is 13 µM [rising, partial curve].

Take `CCc1ccc2nc(N3C(=O)C(O)=C(C(=O)c4ccco4)C3c3cccs3)sc2c1` (stereo unspecified): the cell number change is -25.9%. For the same compound, the AC50 under setting [2] is 23.1 µM [falling, single point].

The term AC50 denotes the concentration giving half of the maximal activity seen.
